A short description of the test: qHTS Assay for Lipid Storage Modulators in Drosophila S3 Cells.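 For cell number change: cells counted by Cell Tracker Red CMTPX staining in the red channel.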 As to conditions: BODIPY lipid droplet fluorescence, 18-24 h; for cell number change: measured here: cell count max response, cells fed with added oleic acid. Put shortly: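 Laser-scanning cytometry quantifies lipid droplet accumulation (500–530 nm total intensity; droplet/cell object ratio) in oleic acid-fed (400 uM added) Drosophila S3 cells treated with a concentration series. 20 uM Triacsin C defined 100% inhibition.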

[1] abbreviates: measured here: lipid fluorescence (Fed channel) AC50, cells fed with added oleic acid.
The mark [2] stands for this setting: measured here: cell number channel AC50, cells fed with added oleic acid.

The other results are listed elsewhere or left out. The main result of the screen is listed elsewhere. These columns were measured beside it and carry no call. Most of these compounds were active or inconclusive in the main read-out, so they are no random draw. Words in brackets tell the shape of the fitted curve; partial curves, single points and poor fits give uncertain potencies.

`CCc1ccc(CNC(=O)CCc2nc(-c3cccs3)no2)cc1`: the cell number change was determined as 6.81%. Also, under setting [1], the concentration at half-maximal activity (AC50) (commonly the concentration giving half of the maximal activity seen) was 18.4 µM [falling, partial curve].
As to `CC(=O)c1ccc(OCC(O)CN2CCCC(C)C2)cc1` (stereo not given), the cell number change stood at 12.7%. Moreover, the AC50 under setting [1] was 0.651 µM [falling, single point].
For `O=C(c1ccccc1)N1CCN(CCc2ccccn2)CC1`, the cell number change was -14.4%. For the same compound, the AC50 under setting [1] was 29.1 µM [rising, single point].
For the compound `COc1ccc(NC(=O)CNC(=O)Cn2c(C)cc3ccccc3c2=O)c(OC)c1`, the cell number change is -0.273%.
`Cc1ccc(S(=O)(=O)N(CC(=O)N2CCc3ccccc3C2)c2cccc(Cl)c2)cc1`: the cell number change worked out at 2.29%. The AC50 under setting [1] was 32.6 µM [rising, partial curve, poor fit].
Turning to `Cc1cccc(C(=O)Nc2ccc3c(c2)ncn3C)c1`, the cell number change was found to be 2.01%. Besides, the half-maximal activity concentration (AC50) under setting [1] is 0.206 µM [rising, partial curve, poor fit].
`COc1ccc(-c2noc(CCc3ccccc3)n2)cc1`: the cell number change is 84.9%. Moreover, under setting [2], the AC50 was 23.1 µM [rising, partial curve].
With `COc1ccc(NC(C)=O)cc1NC(=O)c1cccc(S(=O)(=O)N2CCc3ccccc32)c1`, the cell number change was 17.8%. Besides, the AC50 under setting [2] was 3.26 µM [rising, single point]. For the same compound, the AC50 under setting [1] was 18.4 µM [rising, single point].
Consider `O=C(CN1C2=NCCCN2c2ccccc21)c1ccc(Br)s1`, for which the cell number change was 78.9%. The AC50 under setting [2] is 8.2 µM [rising, partial curve]. Moreover, under setting [1], the AC50 was 4.11 µM [rising, single point].
For the compound `CCN1CCN(S(=O)(=O)c2ccc(Br)s2)CC1`, the cell number change is -213%. Moreover, the AC50 under setting [2] is 29.1 µM [falling, partial curve].
As to `Cc1cccc([C@@H]2[C@@H]3C(=O)N(Cc4ccccc4)C(=O)[C@@H]3[C@]3(Cc4ccc(Cl)cc4)C(=O)N(c4ccc(Br)cc4)C(=O)N23)c1`, the cell number change stood at 58.7%. Also, under setting [2], the AC50 was 29.1 µM [rising, single point]. The AC50 under setting [1] is 6.51 µM [falling, single point].
Regarding `COc1ccc(Nc2ncnc3c2cnn3-c2cccc(C)c2)cc1OC`, the cell number change stood at 17.4%. For the same compound, the AC50 under setting [1] is 0.366 µM [rising, full curve].
As for `COc1ncnc(OC)c1NC(=O)c1ccc(F)cc1`, the cell number change was found to be 11.8%. In addition, the AC50 under setting [2] was 2.06 µM [falling, partial curve, poor fit]. For the same compound, under setting [1], the AC50 is 2.06 µM [falling, partial curve, poor fit].
Regarding `CCOC(=O)c1c(C)[n+]([O-])c2ccc3c(non3O)c12`, the cell number change is -50.1%. Further, under setting [2], the half-maximal activity concentration (AC50) was 25.9 µM [falling, single point]. The AC50 under setting [1] is 29.1 µM [falling, single point].
For the compound `CO/N=C/c1c(-c2ccccc2)nn(C)c1Cl`, the cell number change is -16.9%. The AC50 under setting [1] was 6.51 µM [falling, partial curve, poor fit].
Consider `Cc1cc(C(=O)COC(=O)c2cccc(S(=O)(=O)N(C)C)c2)c(C)n1CC1CCCO1` (stereo not given), for which the cell number change was -11.2%.
With `COC(=O)C1CCN(S(=O)(=O)Cc2ccccc2)CC1`, the cell number change is 15.9%. Also, the AC50 under setting [1] is 0.092 µM [falling, full curve].
Turning to `COc1ccc(Cl)cc1NC(=S)N1CCN(c2ncccn2)CC1`, the cell number change turned out to be 17.6%.
For `O=C(O)COc1ccccc1/C=N/Nc1ccc(S(=O)(=O)N2CCOCC2)cc1[N+](=O)[O-]`, the cell number change stood at 27.7%. The AC50 under setting [1] was 0.146 µM [rising, full curve, poor fit].
In the case of `Cc1ccc(-c2csc(N3CCN(c4cc5c(cc4Cl)nc(C(C)N)n5CCCO)CC3)n2)cc1` (stereo not given), the cell number change turned out to be 30.4%. Also, the AC50 under setting [1] was 29.1 µM [rising, single point].
On to `C/C(CCC(C)C)=N\Nc1cc(C)c2ccccc2n1`, for which the cell number change was 80.1%. Moreover, the AC50 under setting [2] was 2.59 µM [rising, full curve]. In addition, the AC50 under setting [1] is 3.26 µM [rising, partial curve].
Consider `O=C1C2C3C=CC(C3)C2C(=O)N1Nc1ccc([N+](=O)[O-])cc1[N+](=O)[O-]` (stereo not given), for which the cell number change is -13.1%.
Take `COC(=O)c1sc(S(=O)(=O)NCc2ccccc2)c(C(=O)OC)c1C`: the cell number change is 3.66%. Further, the AC50 under setting [1] is 29.1 µM [rising, single point].
Regarding `Cc1cc(NC(=O)c2noc3c2CCc2ccccc2-3)n(-c2ccccc2)n1`, the AC50 under setting [1] was 32.6 µM [falling, single point].
Consider `CC(C)c1csc(CN2CCC(CO)(Cc3ccccc3)CC2)n1`, for which the cell number change is -15.9%. Further, the AC50 under setting [1] was 9.2 µM [falling, partial curve, poor fit].
Regarding `Cc1cc(NC(=O)CSc2nnc(C3COc4ccccc4O3)o2)no1` (stereo not given), the cell number change is -14.8%. The AC50 under setting [2] is 0.517 µM [falling, full curve, poor fit]. The AC50 under setting [1] was 0.184 µM [falling, full curve, poor fit].
On to `C=CCn1c(SCC(=O)NCC2CCCO2)nc2sc(C)c(C)c2c1=O` (stereo not given), for which the cell number change was -10.3%. Moreover, the AC50 under setting [1] is 1.84 µM [falling, partial curve].
For `CN(Cc1ccccc1)C1CC(=O)N(c2ccc(C(=O)O)cc2)C1=O` (stereo not given), the cell number change is -180%. Also, under setting [2], the AC50 is 7.31 µM [falling, partial curve].
On to `Cc1ccccc1OCCC(=O)Nc1c(C)n(C)n(-c2ccccc2)c1=O`, for which the cell number change was -12.5%. The half-maximal activity concentration (AC50) under setting [1] was 3.26 µM [falling, single point].
Turning to `O=C(NCc1ccccn1)c1nn(-c2ccccc2)c(=O)c2ccccc12`, the cell number change is -3.01%. Under setting [1], the AC50 was 16.4 µM [falling, single point].
As for `Cc1ccc(C)c(NC(=O)CN(C)C(=O)C2CCCC2)c1`, the cell number change was -5.52%. Besides, the AC50 under setting [1] is 6.51 µM [falling, single point].
On to `O=C1c2ccccc2-c2cccc(C(=O)N3CCCCCC3)c21`, for which the cell number change was 1.81%. Further, under setting [1], the AC50 is 9.2 µM [rising, partial curve].
Take `Cc1ccc(CSc2nnc(SCC(=O)N/N=C/C=C/c3ccco3)s2)cc1`: the cell number change was -13.8%. For the same compound, under setting [1], the AC50 was 0.517 µM [rising, partial curve, poor fit].
Take `COC(=O)CSc1nc2c(c(=O)n(C)c(=O)n2C)n1CCCc1ccccc1`: the cell number change is -9.58%.
With `O=C(COC(=O)c1ccccc1Oc1ccccc1)NC1CCS(=O)(=O)C1` (stereo not given), the cell number change was -2.86%. Moreover, the half-maximal activity concentration (AC50) under setting [1] was 0.13 µM [falling, full curve, poor fit].
As to `CCC(=O)OCC(=O)Nc1ccc2c(c1)OCO2`, the cell number change is 28%. Under setting [1], the AC50 is 2.31 µM [falling, partial curve, poor fit].
`CCC1(c2ccc(F)cc2)NC(=O)N(CC(=O)Nc2ccc(-c3nc4ccc(C)cc4s3)cc2)C1=O` (stereo not given): the cell number change came out at 34.1%. Moreover, under setting [2], the AC50 is 29.1 µM [rising, single point].
As to `N#CC(C#N)=C(Nc1ccc(F)cc1)SCc1cccc(Br)c1`, the cell number change is -40.6%. Under setting [2], the AC50 is 32.6 µM [falling, partial curve, poor fit]. Also, under setting [1], the AC50 is 16.4 µM [falling, partial curve, poor fit].
For the compound `Cn1c(Oc2ccccc2NCc2cccc(Br)c2)cc(=O)n(C)c1=O`, the cell number change was -9.06%.
Regarding `O=C(NCC(=O)N(c1ccc(Cl)cc1)C(C(=O)NC1CCCC1)c1ccncc1)c1ccco1` (stereo not given), the cell number change was -13.2%. The AC50 under setting [1] is 0.447 µM [falling, single point].
As for `FC(F)(F)c1cnc(Sc2nnc(-c3cccs3)n2CC2CCCO2)c(Cl)c1` (stereo not given), the cell number change was 32.1%. Under setting [2], the AC50 is 0.206 µM [rising, full curve, poor fit].
With `O=C(CCc1ccccc1)NNC(=O)COc1ccccc1`, the cell number change turned out to be 38.2%. Also, the AC50 under setting [2] is 16.4 µM [rising, single point].
In the case of `O=C(Cn1nnc(-c2ccccc2NC(=O)c2ccccc2F)n1)NCc1ccco1`, the cell number change is -3.72%. Besides, under setting [1], the AC50 was 4.61 µM [rising, single point].
Regarding `CCNC(=O)NC(=O)C(C)Sc1ccc2c(c1)OCCO2` (stereo not given), the cell number change is -42.6%. Further, the AC50 under setting [2] is 0.58 µM [falling, partial curve, poor fit].
`CCOc1ccc(NC(=O)c2ccc(Br)o2)c([N+](=O)[O-])c1`: the cell number change is -27.4%. Moreover, the AC50 under setting [1] was 9.2 µM [falling, partial curve, poor fit].
Regarding `O=C(Cc1ccccc1F)Nc1ccc2c(c1)CCC2`, the cell number change came out at 11.5%.
Consider `O=C(c1ccccc1Br)N1N=C(c2ccccc2)CC1c1ccccc1F` (stereo not given), for which the cell number change came to 49.3%. Also, under setting [2], the AC50 was 3.26 µM [rising, full curve, poor fit]. Also, the AC50 under setting [1] is 4.11 µM [rising, full curve].
For the compound `C=CCN(c1ccccc1)S(=O)(=O)c1ccc(Cl)c(C(=O)OCC(=O)c2[nH]c(C)c(C(C)=O)c2C)c1`, the cell number change was -27.2%. Besides, the AC50 under setting [2] is 6.51 µM [rising, single point]. Moreover, under setting [1], the AC50 is 6.51 µM [rising, partial curve].
Turning to `CC(C)Cc1nc2n[nH]c(N)c2c2c1COC(C)(C)C2`, the AC50 under setting [1] was 0.116 µM [rising, full curve, poor fit].
With `CCc1ccc(OCC(=O)N2CCc3ccccc32)cc1`, the cell number change was 6.67%. The AC50 under setting [1] was 29.1 µM [rising, single point].
For `CC(C)Cc1ccc(C(=O)Nc2ccc(Cc3ccncc3)cc2)o1`, the cell number change was -32.7%. Also, the AC50 under setting [2] is 29.1 µM [falling, single point].
On to `O=C(CNC(=O)c1cccs1)OCC(=O)c1ccccc1Cl`, for which the cell number change was 88.9%. Further, under setting [2], the AC50 is 18.4 µM [rising, single point].
In the case of `COCCN(CCOC)C(=O)COC(=O)c1cc([N+](=O)[O-])ccc1Cl`, the cell number change is 36.8%. Moreover, the AC50 under setting [1] was 5.8 µM [rising, partial curve, poor fit].
On to `CCOC(=O)c1ccc(C(=O)NNC(=O)C2C3C=CC(C3)C2C(=O)O)cc1` (stereo not given), for which the cell number change was 9.35%. For the same compound, the half-maximal activity concentration (AC50) under setting [1] was 5.8 µM [rising, single point].
With `Cc1ccc(-n2cccc2/C=C2/NC(=O)N(CC(=O)Nc3cccc(C)c3)C2=O)cc1`, the cell number change was 9.15%.
In the case of `COc1ccc(N2CCN(C(=O)CNC(=O)Cc3ccccc3)CC2)cc1`, the cell number change was found to be 2.21%. In addition, the AC50 under setting [1] is 29.1 µM [falling, single point].
Regarding `CCOc1cc(N2CCOCC2)c(OCC)cc1NC(=O)c1cc(C)cc(C)c1`, the cell number change was -13.3%.
As for `Cc1ccc(S(=O)(=O)N2[C@@H](c3ccc(F)cc3)C(C(=O)O)=CC[C@H]2c2ccc3c(c2)OCO3)cc1`, the cell number change is -22.7%. Under setting [1], the AC50 was 16.4 µM [rising, partial curve, poor fit].

For the origin of these results see PubChem BioAssay AID2685 (National Center for Advancing Translational Sciences (NCATS), 2010).
